Tested on: Caco-2 monolayers
Details: human, Caco-2, 250 μM
Description: The membrane permeability was investigated in Caco-2 monolayers. DMF was investigated in a separate experiment for comparison.
Based on the assumption that in vivo, the intact molecules will be pre-systemically metabolized, the permeability test was performed only in the apical→basolateral direction. The test concentration in the apical medium was 250 μM. […] Sampling time points were 15, 45 and 90 min.

Papp × 10^−6 [cm/sec] mean ± s.d.: 0.3 ± 0.1 10^−6 cm/sec
SMILES: CC(C)NCC(O)COc1ccc(CC(N)=O)cc1 (stereo not shown) [Atenolol, atenolol]

From patent US9969674B2, “MMF-derivatives of ethyleneglycols” (RATIOPHARM GMBH, priority 2014, dated 2018)
